# Assay results taken from patent US12643855B2 (UNIVERSITE DE STRASBOURG, priority 2020, dated 2026).
# For part of these data: The same purity stands for every peptide and may come from a single statement.
# Assays:
# [1] = general procedure: Fmoc solid-phase peptide synthesis; Fmoc Rink Amide AM resin (loading 0.7 mmol/g); HBTU/HOBt/DIEA; HATU/tetramethylpiperidine for Fmoc-Cys(Mmt)-OH; DIC/HOBt for 4-; conditions: whole synthesis, 220.8 nm, scale of the general procedure 0.21 mmol
# [2] = general procedure: Fmoc solid-phase peptide synthesis; Fmoc Rink Amide AM resin; HBTU/HOBt/DIEA; HATU/tetramethylpiperidine for Fmoc-Cys(Mmt)-OH; DIC/HOBt for 4-; conditions: whole synthesis, scale 0.21 mmol
substance,measurement,setting,value
Lys(N3)-CBT,final HPLC purity,[1],>95%
same,isolated mass,[2],60 mg
same,isolated yield,[2],28%
